Publication PMC3540053
Changes are numbered by the printed parent chain. Results are given in words; binding and its absence hold for the method and conditions named.

Assays:
Assay in all cases: two-hybrid; OsCOIs as baits in pGBKT7, OsJAZs or JAZs as preys in pGADT7, co-transformed into S. cerevisiae AH109; growth on SD without Ade, His, Leu and Trp (QDO) with 100 µM coronatine, 7 days; graded strong (+++), medium (++), weak (+), undetectable (−)
[1] = target: T1, OsCOI1a(N475Y) (Oryza sativa) (UniProt Q6Y9P5)
T1 sequence: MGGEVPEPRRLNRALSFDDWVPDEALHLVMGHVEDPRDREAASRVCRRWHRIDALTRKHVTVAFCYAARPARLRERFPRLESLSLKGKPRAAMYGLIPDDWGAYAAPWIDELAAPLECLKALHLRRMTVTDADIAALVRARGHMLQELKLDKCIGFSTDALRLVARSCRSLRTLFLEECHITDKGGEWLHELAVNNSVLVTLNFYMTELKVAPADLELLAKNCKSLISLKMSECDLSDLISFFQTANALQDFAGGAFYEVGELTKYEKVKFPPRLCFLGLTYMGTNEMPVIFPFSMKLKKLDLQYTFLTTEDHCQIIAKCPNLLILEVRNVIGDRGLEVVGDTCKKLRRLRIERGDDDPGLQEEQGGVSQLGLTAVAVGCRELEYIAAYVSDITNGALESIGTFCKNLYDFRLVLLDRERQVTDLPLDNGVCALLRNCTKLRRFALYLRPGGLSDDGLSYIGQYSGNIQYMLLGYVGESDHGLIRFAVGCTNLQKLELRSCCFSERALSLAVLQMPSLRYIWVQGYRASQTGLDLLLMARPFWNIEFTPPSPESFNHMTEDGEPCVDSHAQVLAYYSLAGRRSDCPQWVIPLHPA

[2] = target: T2, OsCOI2(F91Y, H391Y, N477Y) (Oryza sativa) (UniProt Q84QA7)
T2 sequence: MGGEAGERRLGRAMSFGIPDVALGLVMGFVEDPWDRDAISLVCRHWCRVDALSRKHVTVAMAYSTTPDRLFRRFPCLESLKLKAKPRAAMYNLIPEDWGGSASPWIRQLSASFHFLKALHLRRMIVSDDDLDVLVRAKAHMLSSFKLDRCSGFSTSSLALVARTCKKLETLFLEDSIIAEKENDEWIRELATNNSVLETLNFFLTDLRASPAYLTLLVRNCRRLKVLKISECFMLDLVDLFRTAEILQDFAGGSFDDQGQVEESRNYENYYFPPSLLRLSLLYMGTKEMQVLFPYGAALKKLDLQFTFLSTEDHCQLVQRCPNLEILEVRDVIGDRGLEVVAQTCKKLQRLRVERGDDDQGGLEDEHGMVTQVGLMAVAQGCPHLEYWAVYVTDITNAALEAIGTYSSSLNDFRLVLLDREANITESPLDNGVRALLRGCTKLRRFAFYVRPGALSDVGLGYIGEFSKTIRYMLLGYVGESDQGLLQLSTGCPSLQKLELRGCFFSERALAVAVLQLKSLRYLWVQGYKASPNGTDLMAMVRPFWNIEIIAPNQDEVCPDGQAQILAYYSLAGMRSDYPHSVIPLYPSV

[3] = target: T3, OsCOI2(F91Y) (Oryza sativa) (UniProt Q84QA7)
T3 sequence: T2 sequence with Y391H, Y477N

[4] = target: T4, OsCOI2(N477Y) (Oryza sativa) (UniProt Q84QA7)
T4 sequence: T2 sequence with Y91F, Y391H

Measured: binding

B1: OsJAZ4 (protein, UniProt Q10QW3 1-187)
chain: MAMEGKSRRFAVACGVLSQYVRAEQKMAAAAGAAPARAVTTLSLMPGAEVVVEEEERREVGEEEAGPATAPAAPLTIFYGGRMVVFEDFPADKAAEVMRMASSGMAAAPAQREGAALADMPIMRKASLQRFFAKRKDRLAATTPYARPSPAETKASEPEEKKTPTSWLDLAASASAAARRDSLTIAL
no binding: all assays above

B2: OsJAZ3 (protein, UniProt Q8GSI0 1-179)
chain: MASTDPMTRRFAVACGVLSQYVKANSSQPSTAAPVAQGVSGLMAAAAAAAAAPVVQEPGCEVDGGGQQFTIFYAGKVVVIDRCTPAMAAELMRFASAAQGGGGAPEAPPALVDMPIARKASLKRFLAKRKATPASARSSYVVRAAAAEEEQPPAKKAKAAVERREDWLALGSLGHMHSR
no binding: all assays above

B3: OsJAZ12 (protein, UniProt Q6Z2K1 1-157)
chain: MPPPAAVASLTLQVPGGAHDVTSLATSPRTMAVPGTTEQLTIFYSGSMVKFDNVPREKIRYACRLRRLYSSLQRSLQTQDTSMFPSSSSLHIQTKRRGYSVIRLLREMLMVCSSTRTKPMLVHSDSIGAQRTGTPPSRRRIHARGKSRSCQEMSHCW
no binding: all assays above
